The values that follow come from the supplement of paper PMC12578635.

± gives the standard deviation of the averaged measurements. Some of the results follow. Single values are uncertain, as repeats are few or missing.

The subject of the experiment is RAW 264.7 macrophages infected with S. aureus JE2-lux. The experiment in a line: host macrophage viability (CellTiter-Fluor) relative to DMSO vehicle; higher = more viable host cells. Conditions: 10 µM; treatment time 4 h; gentamicin 50 µg/ml.
On to `COc1ccc(C(NC(=O)c2cnc(SC)nc2)c2ccncc2)cc1` (stereo not given), for which the host macrophage viability is 111%.

On to `CN(C(=O)Cc1ccsc1)c1nc2c(s1)CCc1c-2cnn1C`, for which the host macrophage viability stood at 107%.

`Cc1ccc(S(=O)(=O)NC(C)C(=O)Nc2n[nH]c(Cc3ccccc3)n2)cc1` (stereo not given): the host macrophage viability came to 120%.

Consider `CCN(CC)CCNC(=O)c1cnc2c(c(C)nn2-c2ccccc2)c1NCc1ccc(OC)cc1`, for which the host macrophage viability was 96.1%.

With `Cc1ccc(S(=O)(=O)c2c(C(=O)N3CCCCC3)cnc3ccc(Cl)cc23)c(C)c1`, the host macrophage viability was 123%.

In the case of `Cc1cc(C)cc(N2CC(C)Cn3c2nc2c3c(=O)n(CC(=O)O)c(=O)n2C)c1` (stereo not given), the host macrophage viability worked out at 126%.

`COC(=O)c1ccc(NC(=O)CSc2nnc(Cc3ccc(C)cc3)c(=O)n2N)cc1`: the host macrophage viability is 114%.

In the case of `Cc1c(NS(=O)(=O)c2ccc3c4c(cccc24)C(=O)N3)c(=O)n(-c2ccccc2)n1C`, the host macrophage viability came to 99.9 ± 8.6%.

On to `O=C1Nc2ccc(F)cc2/C1=C1/SC(=S)N(CCS(=O)(=O)O)C1=O`, for which the host macrophage viability is 106%.

As for `O=c1c2scc(-c3ccc(F)cc3)c2ncn1Cc1ccccn1`, the host macrophage viability came to 84.4%.

Regarding `Cc1cccn2cc(CCNS(=O)(=O)c3cccc([N+](=O)[O-])c3)nc12`, the host macrophage viability is 118%.

Take `O=C(CCN1CCOCC1)N1N=C(c2ccc(Cl)cc2)CC1c1ccco1` (stereo not given): the host macrophage viability turned out to be 107%.

As for `O=C(COc1ccc(Br)cc1)N/N=C/c1ccccc1`, the host macrophage viability is 134%.

Take `CCOc1cc(/C=C2/SC(=S)N(NC(=O)c3ccccc3OC)C2=O)ccc1O`: the host macrophage viability is 95.7%.

For `CC(C)(C)c1nc2ccccc2c2nn(CC(=O)N3CCNC(=O)C3(C)C)c(=O)n12`, the host macrophage viability worked out at 114%.

With `CC(=O)N1N=C(c2ccccc2)CC1c1ccc2nccnc2c1` (stereo not given), the host macrophage viability is 106%.

On to `O=C(CCCS(=O)(=O)c1ccc(F)cc1)Nc1ncnc2sccc12`, for which the host macrophage viability was 109%.

As to `COc1cc(/C=C2/SC(=S)N(Nc3ccc([N+](=O)[O-])cc3[N+](=O)[O-])C2=O)ccc1O`, the host macrophage viability is 93.5%.

On to `O=C(Cc1ccc(-c2ccccc2)cc1)Nc1ccc2c(c1)CCC(=O)N2`, for which the host macrophage viability stood at 118%.

On to `CN(C)C(=O)c1csc2nc(-c3ccc(NC(=O)c4ccc(Cl)nc4)cc3)cn12`, for which the host macrophage viability came to 123%.

Regarding `CCC(CC)C(=O)N1CC(=O)Nc2ccc(Cl)cc2C1c1ccc(F)cc1` (stereo not given), the host macrophage viability was 120%.

`Cc1nn(C)cc1C(=O)NC1CCN(c2nc3c(c(=O)[nH]2)CCCC3)CC1`: the host macrophage viability is 120%.

As to `Cc1ccc2nc(-n3nc(C)c4c3NC(=O)CC4c3ccc(F)c(F)c3)sc2c1` (stereo not given), the host macrophage viability was found to be 120%.

`O=C(CSc1nc2c(c(=O)n1-c1ccc(F)cc1)SCC2)NCC1CCCO1` (stereo not given): the host macrophage viability stood at 101%.

For `Cc1cc(Cl)ccc1OCC(=O)N/N=C1/C(=O)Nc2ccc(Br)cc21`, the host macrophage viability amounted to 126%.

Take `Oc1c(C(c2ccco2)N2CCC3(CC2)OCCO3)sc2ncnn12` (stereo not given): the host macrophage viability stood at 126%.

For `CC1C(=O)N2CCCc3cc(NC(=O)COc4ccc5ccccc5c4)cc1c32` (stereo not given), the host macrophage viability came out at 125%.

On to `CCOC(=O)c1ccc(NC(=O)CSc2nc(=O)n3cc(C)ccc3n2)cc1`, for which the host macrophage viability is 108%.

For the molecule `COc1cc2nc(Nc3cccc(Cl)c3)sc2cc1OC`, the host macrophage viability came to 107%.

Consider `O=C(CSc1nc2ncccc2o1)NCC1CCCO1` (stereo not given), for which the host macrophage viability is 124%.

With `O=C(Nc1ccccc1Oc1ccccc1)c1ccc2ncsc2c1`, the host macrophage viability is 113%.

In the case of `O=C(Cc1cccc2ccccc12)Nc1nnc(-c2ccc3c(c2)OCCO3)o1`, the host macrophage viability amounted to 134%.

Turning to `O=C(CSc1ccc2nnc(-c3ccncc3)n2n1)OCc1ccccc1`, the host macrophage viability amounted to 98.3%.

Take `COc1ccccc1C(=O)N1CCN(c2oc(/C=C/c3ccc(C)cc3)nc2C#N)CC1`: the host macrophage viability stood at 135%.

For `O=C(c1cc(C2CC2)on1)N1CCCC1c1cccs1` (stereo not given), the host macrophage viability amounted to 109%.

As for `CC1CN(C)CCC1CCc1ccc(NC(=O)Cn2ncc3ccccc3c2=O)cc1` (stereo not given), the host macrophage viability worked out at 144%.

For `O=C(NC1CCCCNC1=O)C1CCN(Cc2noc(-c3ccc(F)cc3)n2)CC1` (stereo not given), the host macrophage viability was determined as 111%.

Turning to `COc1ccccc1OCC(=O)NCCc1sc(-c2ccc(F)cc2)nc1C`, the host macrophage viability came out at 113%.

Take `CCOC(=O)c1cc([N+](=O)[O-])sc1NC(=O)c1ccc(S(=O)(=O)N(C)C)cc1`: the host macrophage viability is 92.4 ± 2.9%.

Consider `Clc1ccc2nc(N3CCN(c4nc5ccccc5s4)CC3)sc2c1`, for which the host macrophage viability came out at 101 ± 3%.

`CC1CCCN(CCCNC(=O)Cn2cccc2-c2nc(-c3ccc(Cl)cc3)cs2)C1` (stereo not given): the host macrophage viability was 87.3%.

As for `COc1ccc(-c2nn(CCCC(=O)NCCc3ccc(Cl)cc3)c(=O)c3noc(C)c23)cc1`, the host macrophage viability amounted to 106%.

`CC(CCc1ccccc1)NC(=O)C1CCN(c2ccc3nnc(-c4ccccc4F)n3n2)CC1` (stereo not given): the host macrophage viability is 122%.

Consider `O=C(NNc1nc2c(Cl)cccc2s1)c1c(F)cccc1F`, for which the host macrophage viability stood at 118 ± 9.1%.

With `COc1ccc(N2C(=O)C3N=NN(CC(=O)Nc4ccc(C)cc4C)C3C2=O)cc1Cl` (stereo not given), the host macrophage viability was found to be 92.1%.

In the case of `COCCCNC(=O)c1cncc(-c2ccc(C)cc2)c1`, the host macrophage viability came to 95.1%.

Take `CC(=O)c1ccc(NC(=O)Nc2c[nH]c3ccccc23)cc1`: the host macrophage viability turned out to be 135%.

In the case of `CCOc1ccc(-c2noc(CSc3nc4cc5c(cc4c(=O)n3C3CCCC3)OCO5)n2)cc1`, the host macrophage viability turned out to be 135%.

For the molecule `CC(C)(C)c1nc2ccccc2c2nn(CC(=O)NCC3CC3)c(=O)n12`, the host macrophage viability came out at 133%.

Take `Cc1c(C)n(-c2cc(F)cc(F)c2)c2ncnc(Cl)c12`: the host macrophage viability worked out at 114%.

For the molecule `COc1cccc(N(CC(=O)NCc2ccc(F)cc2)C(=O)CN2C(=O)COc3ccccc32)c1`, the host macrophage viability was found to be 110%.

As for `O=C(O)c1cccnc1SCc1cc2c(cc1Cl)OCO2`, the host macrophage viability worked out at 123%.

For `CC1C(=O)N2CCCc3cc(NC(=O)C(=O)NCc4cccs4)cc1c32` (stereo not given), the host macrophage viability is 112%.

`Cc1ccc2c(C(O)CN3CCC4(CC3)CC(O)c3ccccc3O4)c(C)[nH]c2c1` (stereo not given): the host macrophage viability came out at 128%.

For the molecule `CN(c1cncc(C(=O)NCc2ccco2)c1)S(=O)(=O)c1ccccc1`, the host macrophage viability was found to be 114%.

Take `NC(=O)c1ccsc1NC(=O)c1ccccc1I`: the host macrophage viability is 104%.

Consider `CCCS(=O)(=O)N1CCN(c2cc(N(C)C)nc(C)n2)CC1`, for which the host macrophage viability was determined as 107%.

For the molecule `Cc1cc(C)c2sc(N3CCN(c4ccccc4)CC3)nc2c1`, the host macrophage viability was 103 ± 8.7%.

Take `Cc1onc(-c2ccncc2)c1C(=O)NCC(c1ccc(F)cc1)N1CCCC1` (stereo not given): the host macrophage viability turned out to be 110%.

As to `O=C(c1ccco1)N(CCCn1ccnc1)c1nc2ccc(Br)cc2s1`, the host macrophage viability was determined as 100%.

For the molecule `O=c1[nH]c(=O)c2cc(S(=O)(=O)Nc3cccc(-c4ccc(F)cc4)c3)ccc2[nH]1`, the host macrophage viability was determined as 110%.

As to `Cc1sc(NC(=O)CN(Cc2ccccc2)C(=O)c2ccco2)c(C(N)=O)c1C`, the host macrophage viability worked out at 109%.

Take `Cc1ccc(C(=O)NC2CC3CCC(C2)N3C(=O)Nc2ccccc2)cc1` (stereo not given): the host macrophage viability was determined as 107%.

Regarding `Cn1c2c(c(=O)n(C)c1=O)C(c1ccccc1Br)C1=C(CCCC1=O)N2` (stereo not given), the host macrophage viability worked out at 99.4%.

For `Cc1ccc(NC(=O)CSc2ccnc3c2c(=O)n(C)c(=O)n3C)cc1Cl`, the host macrophage viability was found to be 124%.
